Measurements published in paper PMC8297771, “A highly potent and safe pyrrolopyridine-based allosteric HIV-1 integrase inhibitor targeting host LEDGF/p75-integrase interaction site” (PLoS Pathogens, 2021).

Test system: HFL-1 cells
Assay: cells
Conditions: Homo sapiens, HFL1

CN[C@@H]1C[C@H]2O[C@@](C)([C@@H]1OC)n1c3ccccc3c3c4c(c5c6ccccc6n2c5c31)C(=O)NC4 [Staurosporine]
IC50: 0.4 nM
